Where a name gives a salt, the structure may show the parent alone. The list shows a part of the results. Single values are uncertain, as repeats are few or missing.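 Labelled rat cortical synaptosomes were engulfed by primary human fetal astrocytes. Engulfment equaled a red/green ratio, corrected for calcein live-cell signal and normalized to the plate median. Compounds were toxic when calcein dropped over 30%, and reduced phagocytosis when below 70% of the median above 5 µM.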
Key:
Human fetal astrocytes [1] = assay: loss of total cells relative to no-compound high-control median (toxicity); higher = more toxic (fewer cells); conditions: 24 h
Human fetal astrocytes [2] = assay: synaptosome phagocytosis (pHrodo/calcein intensity ratio) relative to plate median of data wells; higher = more phagocytosis; conditions: 24 h

Row | SMILES | loss of total cells (Human fetal astrocytes [1]; 1.39 µM) [%] | loss of total cells (Human fetal astrocytes [1]; 2.78 µM) [%] | loss of total cells (Human fetal astrocytes [1]; 5.56 µM) [%] | loss of total cells (Human fetal astrocytes [1]; 11.11 µM) [%] | loss of total cells (Human fetal astrocytes [1]; 22.22 µM) [%] | synaptosome phagocytosis (Human fetal astrocytes [2]; 1.39 µM) [%] | synaptosome phagocytosis (Human fetal astrocytes [2]; 2.78 µM) [%] | synaptosome phagocytosis (Human fetal astrocytes [2]; 5.56 µM) [%] | synaptosome phagocytosis (Human fetal astrocytes [2]; 11.11 µM) [%] | synaptosome phagocytosis (Human fetal astrocytes [2]; 22.22 µM) [%]
1 | CN(C)c1cc2c(Nc3ccc4c(cnn4Cc4ccccc4)c3)ncnc2cn1 | -11.3 | -21.4 | 3.3 | -13 | 0.8 | 102 | 86.3 | 114 | 73.1 | 85.3
2 | c1ccc(CN2CCC3(CCCc4ccccc43)CC2)cc1 [L-687,384 hydrochloride] | -6.2 | 6.8 | -5.2 | 4.8 | 7.5 | 104 | 89.5 | 46.6 | 72.7 | 85.2
3 | N[C@@H](Cc1ccc(F)cc1)C(=O)O [p-Fluoro-L-phenylalanine] | -1.3 | 0 | -16.5 | -8.5 | 6.4 | 118 | 126 | 102 | 114 | 96.5
4 | C[N+](C)(C)CCCCCC[N+](C)(C)C [Hexamethonium bromide] | 7.9 | -6 | -6.6 | -20.2 | -3.2 | 144 | 83.8 | 133 | 116 | 117
5 | [Cl-].[Li+] [Lithium Chloride] | 11.3 | 2.6 | -6.6 | 0.4 | 10.4 | 98.5 | 86.9 | 111 | 134 | 113
6 | CC[C@]1(O)C[C@H]2CN(CCc3c([nH]c4ccccc34)[C@@](C(=O)OC)(c3cc4c(cc3OC)N(C=O)[C@H]3[C@@](O)(C(=O)OC)[C@H](OC(C)=O)[C@]5(CC)C=CCN6CC[C@]43[C@@H]65)C2)C1 [Vincristine sulfate] | 7.8 | 0.3 | 29.2 | 23.4 | 7.4 | 115 | 102 | 98.8 | 107 | 99.2
7 | CC(C)[N+]1(C)[C@@H]2CC[C@H]1C[C@@H](OC(=O)C(CO)c1ccccc1)C2 (stereo not given in full) [Ipratropium bromide] | -13 | -16.2 | -15.6 | -25.6 | -10.4 | 99.4 | 86.5 | 125 | 90.6 | 81.1
8 | Nc1nc(OCc2ccccc2)c2nc[nH]c2n1 [O6-benzylguanine] | -7.3 | -0.6 | -6 | 0.4 | -3.4 | 127 | 99.2 | 100 | 128 | 99.6
9 | Nc1ccc2c3c(cccc13)C(=O)NC2=O [4-Amino-1,8-naphthalimide] | -4.4 | -1.8 | -18.9 | -0.4 | -9.4 | 254 | 106 | 124 | 140 | 82.2
10 | CC(=O)[C@H]1CC[C@H]2[C@@H]3CCC4=CC(=O)CC[C@]4(C)[C@H]3CC[C@]12C [Progesterone] | -13.7 | 10.4 | 14.6 | 21 | 8.4 | 122 | 95.7 | 112 | 115 | 105
11 | Cc1nc(N=Nc2ccc(C(=O)O)cc2)c(COP(=O)(O)O)c(C=O)c1O | -16.6 | -7.7 | 8.9 | 2.9 | -18.7 | 75.3 | 54 | 96.7 | 122 | 110
12 | CC(O)C(O)[C@H]1CNc2nc(N)[nH]c(=O)c2N1 (stereo partly drawn) [(6R)-5,6,7,8-Tetrahydro-L-biopterin hydrochloride] | -11.5 | -8.1 | -9 | -17.2 | -35.4 | 132 | 128 | 130 | 113 | 112
13 | NCCS(=O)O [Hypotaurine] | -6.3 | -19.7 | -9.9 | -4.9 | 0.8 | 93.9 | 95.4 | 117 | 130 | 145
14 | N#C/C(=C/c1ccc(O)c(O)c1)C(=O)N1CCc2ccccc21 [Tyrphostin AG 528] | -12.7 | -10.5 | -6.7 | -11.9 | -18.9 | 117 | 109 | 95.5 | 81.6 | 87.6
15 | CCCN(CC1CC1)c1nc(C)nc(Nc2c(Cl)cc(Cl)cc2Cl)c1Cl | -4.6 | -3.4 | -2.5 | -22 | -13.6 | 92.7 | 81.9 | 85.9 | 98.7 | 87
16 | CC[N+](CC)(CC)CC(=O)Nc1c(C)cccc1C [Lidocaine N-ethyl bromide quaternary salt] | -10 | -0.5 | -7 | -14.3 | 10.3 | 91.4 | 109 | 86.8 | 94.8 | 108
17 | CCCn1c(=O)[nH]c(=O)c2[nH]cnc21 [3-n-Propylxanthine] | -6.2 | -4.1 | -0.5 | 2.9 | 2.8 | 111 | 126 | 109 | 121 | 124
18 | C[C@]12CCC(=O)C=C1CC[C@@H]1[C@@H]2[C@@H](O)C[C@@]2(C)[C@H]1CC[C@]2(O)C(=O)CO [Hydrocortisone] | 15.5 | 0.9 | 2.5 | 1.3 | 4 | 122 | 109 | 102 | 127 | 118
19 | CNc1ncnc2c1ncn2[C@@H]1O[C@H](CO)[C@@H](O)[C@H]1O [N6-Methyladenosine] | 14.7 | 4.1 | -19.2 | 16.2 | 29.9 | 121 | 119 | 109 | 137 | 112

Row | SMILES | loss of total cells (Human fetal astrocytes [1]; 1.39 µM) [%] | loss of total cells (Human fetal astrocytes [1]; 2.78 µM) [%] | loss of total cells (Human fetal astrocytes [1]; 5.56 µM) [%] | loss of total cells (Human fetal astrocytes [1]; 11.11 µM) [%] | loss of total cells (Human fetal astrocytes [1]; 22.22 µM) [%] | synaptosome phagocytosis (Human fetal astrocytes [2]; 1.39 µM) [%] | synaptosome phagocytosis (Human fetal astrocytes [2]; 2.78 µM) [%] | synaptosome phagocytosis (Human fetal astrocytes [2]; 5.56 µM) [%] | synaptosome phagocytosis (Human fetal astrocytes [2]; 11.11 µM) [%] | synaptosome phagocytosis (Human fetal astrocytes [2]; 22.22 µM) [%]
20 | O=C(Nc1cccc(C(=O)Nc2ccc(S(=O)(=O)O)c3cc(S(=O)(=O)O)cc(S(=O)(=O)O)c23)c1)Nc1cccc(C(=O)Nc2ccc(S(=O)(=O)O)c3cc(S(=O)(=O)O)cc(S(=O)(=O)O)c23)c1 | -14.7 | -1.4 | -3.3 | 3.8 | 9.3 | 108 | 128 | 160 | 152 | 201
21 | NCCCCCCNS(=O)(=O)c1cccc2c(Cl)cccc12 [W-7 hydrochloride] | -4 | -1.2 | 0.5 | -2.2 | 14.7 | 85.9 | 112 | 100 | 100 | 95.2
22 | O=C(O)CCC(NC(=O)c1ccccc1C(=O)O)C(=O)O [Phthalamoyl-L-glutamic acid trisodium] | -3.4 | -0.3 | 8.4 | -11.1 | -10.7 | 104 | 109 | 95 | 125 | 89.5
23 | CC(C)[C@@H]1NC(=O)[C@H](CCCCN)NC(=O)[C@@H](Cc2c[nH]c3ccccc23)NC(=O)[C@H](Cc2ccc(O)cc2)NC(=O)[C@H](C)N(C)C(=O)[C@H](Cc2ccccc2)NC1=O [Seglitide] | -5.3 | -27.2 | -21.9 | -10.3 | -23 | 130 | 121 | 97.4 | 113 | 142
24 | CCn1cc(C(=O)O)c(=O)c2ccc(Cc3ccccc3)nc21 [Amfonelic acid] | -9.6 | -4.3 | 10.7 | -13.9 | -2.4 | 92.1 | 89.7 | 119 | 124 | 146
25 | NC(=S)c1ccc[n+]([C@@H]2O[C@@H](COP(=O)([O-])OP(=O)(O)OC[C@H]3O[C@@H](n4cnc5c(N)ncnc54)C(OP(=O)(O)O)[C@H]3O)C(O)C2O)c1 (stereo not given in full) [Thio-NADP sodium] | -18.3 | -9.3 | 5.1 | -20.3 | -20.6 | 86.8 | 97.5 | 119 | 139 | 102
26 | CC(C)(C)[C@]1(O)CCN2C[C@H]3c4ccccc4CCc4cccc(c43)[C@@H]2C1 (racemic) [(±)-Butaclamol hydrochloride] | -12.8 | -5.7 | -25.3 | -18.4 | -11.7 | 79.2 | 79.5 | 76.4 | 75.2 | 76.1
27 | NCCNC(=O)c1ncsc1-c1cccc(F)c1 [Ro 41-1049 hydrochloride] | 1.6 | -6.9 | -19.7 | -17.2 | -6.6 | 112 | 126 | 137 | 114 | 111
28 | Oc1ccc([C@@H]2CNCc3sccc32)cc1O | -5.3 | -26 | -18.5 | -31.8 | -28 | 110 | 93.4 | 93.2 | 86.6 | 52.8
29 | COc1ccc2[nH]c(I)c(CCNC(C)=O)c2c1 [2-Iodomelatonin] | 2.9 | 2.6 | 2.5 | 0.4 | -6.4 | 122 | 124 | 89.3 | 92.8 | 98.9
30 | CCCC(C(=O)OCCN(CC)CC)(c1ccccc1)c1ccccc1 [SKF-525A hydrochloride] | -13.7 | 2.3 | 12.7 | 24.8 | 15 | 105 | 87.7 | 106 | 80.9 | 93.3
31 | Fc1ccc(C(OCCCc2cnc[nH]2)c2ccc(F)cc2)cc1 | -31.8 | 14 | 14.6 | 13.3 | 17.8 | 100 | 94.9 | 109 | 56.6 | 75.2
32 | c1cnc2c(c1)ccc1cccnc12 [1,10-Phenanthroline monohydrate] | -12.1 | 0.3 | -13.5 | 12.6 | -3.3 | 115 | 116 | 77 | 90.9 | 61.3
33 | N#CC(C#N)=C(N)/C(C#N)=C/c1ccc(O)cc1 [Tyrphostin AG 112] | -10.2 | -12.9 | -4.5 | -11.9 | -18.9 | 92.9 | 102 | 101 | 110 | 83.2
34 | CC1(C)CCC=[N+]1[O-] [5,5-Dimethyl-1-pyrroline-N-oxide] | 2.1 | -5.1 | 20.6 | -15.7 | -3.2 | 82.6 | 111 | 107 | 97.9 | 83.6
35 | Cc1ccccc1CNc1ncnc2c1ncn2[C@@H]1O[C@H](CO)[C@@H](O)[C@H]1O [Metrifudil] | 7.1 | 22.2 | 16.4 | 20 | 30.8 | 122 | 111 | 115 | 116 | 186
36 | CC(C)c1ccc2c(c1)c(SC(C)(C)C)c(CC(C)(C)C(=O)O)n2Cc1ccc(Cl)cc1 | -9 | 13.1 | -2.3 | 22.9 | 15 | 106 | 110 | 88.2 | 97.5 | 32.6
37 | O=C(O)C=C1CCCc2ccccc2C1O (stereo not given) | -16.6 | -2.3 | 0.5 | 17.1 | 17.8 | 90.1 | 89.5 | 137 | 102 | 127
38 | C[N+](C)(C)CCO.[Br-] [Choline bromide] | -6.2 | -7.8 | -0.5 | -7.6 | 4.1 | 68.7 | 98.8 | 112 | 108 | 91.8

Full records as entered above. Order of values: loss of total cells (Human fetal astrocytes [1]; 1.39 µM) [%] | loss of total cells (Human fetal astrocytes [1]; 2.78 µM) [%] | loss of total cells (Human fetal astrocytes [1]; 5.56 µM) [%] | loss of total cells (Human fetal astrocytes [1]; 11.11 µM) [%] | loss of total cells (Human fetal astrocytes [1]; 22.22 µM) [%] | synaptosome phagocytosis (Human fetal astrocytes [2]; 1.39 µM) [%] | synaptosome phagocytosis (Human fetal astrocytes [2]; 2.78 µM) [%] | synaptosome phagocytosis (Human fetal astrocytes [2]; 5.56 µM) [%] | synaptosome phagocytosis (Human fetal astrocytes [2]; 11.11 µM) [%] | synaptosome phagocytosis (Human fetal astrocytes [2]; 22.22 µM) [%]
CC1(C)CCC=[N+]1[O-] [5,5-Dimethyl-1-pyrroline-N-oxide] is listed with 2.1 | -5.1 | 20.6 | -15.7 | -3.2 | 82.6 | 111 | 107 | 97.9 | 83.6
N#CC(C#N)=C(N)/C(C#N)=C/c1ccc(O)cc1 [Tyrphostin AG 112] is listed with -10.2 | -12.9 | -4.5 | -11.9 | -18.9 | 92.9 | 102 | 101 | 110 | 83.2

Reference: the supplement of paper PMC10689618
